Measurements taken from patent US20260200971A1, “METHODS FOR ISOLATING, DETECTING, AND QUANTIFYING INTERCELLULAR PROTEINS” (Fred Hutchinson Cancer Center, priority 2022, published 2026).
At least one compound was matched to its structure with a doubt left.

System: MCF7:WS8 cells
Assay: Click labeling and PEA (Olink Explore 3072) differential intercellular protein expression
Format: cell-based
Settings: estradiol (1 nM) versus estrogen-deprived controls

## C[C@]12CC[C@@H]3c4ccc(O)cc4CC[C@H]3[C@@H]1CC[C@@H]2O [estradiol]
  most upregulated intercellular protein: AREG
